PMC11658772
These are yes or no findings as the source states them, for the method shown. Binding seen in cells or lysates may run through a third protein. Some results given as binding are weak or reduced against the parent protein; the word gives no strength. Where a sequence is shown, tags or fusion partners need not be part of it.

Molecular target: T1, MSL1^Δ24-39-3xHA (Drosophila melanogaster) (UniProt P50535)
T1 sequence: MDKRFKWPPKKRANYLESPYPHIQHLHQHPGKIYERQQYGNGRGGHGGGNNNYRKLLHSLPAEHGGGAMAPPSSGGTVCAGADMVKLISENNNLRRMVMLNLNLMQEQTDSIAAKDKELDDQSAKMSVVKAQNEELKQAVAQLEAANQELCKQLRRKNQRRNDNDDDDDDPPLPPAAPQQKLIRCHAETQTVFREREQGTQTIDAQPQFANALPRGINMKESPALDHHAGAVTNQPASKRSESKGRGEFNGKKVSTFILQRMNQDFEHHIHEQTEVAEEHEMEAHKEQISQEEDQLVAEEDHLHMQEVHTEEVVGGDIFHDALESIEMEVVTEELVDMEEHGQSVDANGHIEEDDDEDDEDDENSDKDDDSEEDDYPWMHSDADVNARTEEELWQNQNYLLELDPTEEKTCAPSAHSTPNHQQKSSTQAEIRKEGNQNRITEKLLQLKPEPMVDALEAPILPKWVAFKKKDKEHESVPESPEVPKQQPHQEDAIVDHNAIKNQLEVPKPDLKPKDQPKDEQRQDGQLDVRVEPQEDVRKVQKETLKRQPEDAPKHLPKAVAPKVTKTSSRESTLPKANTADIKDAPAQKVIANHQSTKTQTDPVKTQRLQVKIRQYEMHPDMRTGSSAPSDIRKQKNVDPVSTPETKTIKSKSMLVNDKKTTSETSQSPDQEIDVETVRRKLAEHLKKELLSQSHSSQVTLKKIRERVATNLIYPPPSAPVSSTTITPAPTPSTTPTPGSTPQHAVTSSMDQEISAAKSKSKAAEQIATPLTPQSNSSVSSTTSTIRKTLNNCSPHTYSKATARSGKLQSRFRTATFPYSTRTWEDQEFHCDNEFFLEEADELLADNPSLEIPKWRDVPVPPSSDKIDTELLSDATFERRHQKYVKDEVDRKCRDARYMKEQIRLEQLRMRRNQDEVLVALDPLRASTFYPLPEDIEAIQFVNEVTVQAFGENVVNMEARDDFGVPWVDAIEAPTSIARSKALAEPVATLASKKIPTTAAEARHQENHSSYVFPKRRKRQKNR
Assay: co-IP; Drosophila S2 cells co-transfected with MSL1*-3xHA and MSL2-3xFLAG, 48 hr; extract made with 420 mM NaCl; immunoprecipitation with anti-FLAG, anti-HA or mouse IgG (negative control) magnetic beads in buffer-150 (20 mM Tris-HCl pH 7.4, 150 mM NaCl, 10 mM MgCl2, 0.1% NP-40), overnight at 4 °C; immunoblot with anti-FLAG-HRP

B1: MSL2-3xFLAG (protein, UniProt P50534 1-773)
chain: MAQTAYLKVTRIAMRSASNLSKRRVEELNSGLGELRQLLSCVVCCQLLVDPYSPKGKRCQHNVCRLCLRGKKHLFPSCTQCEGCSDFKTYEENRMMAAQLLCYKTLCVHLLHSALFGELAGMRPQVARELVPRIKLPPKTTQEFIREGSNISDTFDIFLPQPDLPFLKDMPTSLPAETPPTSAVTTPELPYDHHLNISDIEAEAAATAEQGHFSPLPLLPTGSRMGMLSHAGQIVIATESSESGFMDQAWTDQVDLSGTVSVSKYTNSGNNFAVSYVMPTSATTKFDPQELQIGQVVQMADSTQLAVLAAVEETVETSTQLTVLSTTVEETVETSTQLEVLTSAEEPNEISDQLANLQVEESDEALVEETVEEAEGTSIPSEVVAEHMEEDQHLDVHTSQSPTQTEMEEAVEEHVATKTQLGHVQTELQDAESLQKDFEDAKAAAEEAKEKEKDLHAISAELQKEDSDEPTLKRKRTRTLKASQAAKIEPVPSEVKTKVQSGKGALRRIRGKDKEEKVKPPKPKCRCGISGSSNTLTTCRNSRCPCYKSYNSCAGCHCVCCKNPHKEDYVESDEDDDLEDFEMPKDVPEPMTQSEEPVVAEPRQEENSMAPPDSSAPISLVPLNNLQQSQHPLVLVQNEKGEYQGFNIFQGSKPLDPVTVGFTIRVQLQHTDGFGSLPQYAYIMPTIDPPNPPAPSLSPPPPPAPDREVIEPPAKKFRTSRTRRGRANFSALDTVDELVSGGSRSNSAAGDRSSATDNAHSLFEEIMSGSDDL
binding: binds
